Data: doi:10.1101/2023.10.24.563848
These are yes or no findings as the source states them, for the method shown. For some of these results: In cells and extracts the contact can be indirect. Some entries that bind do so weakly or less than the wild type. Where a sequence is shown, tags or fusion partners need not be part of it. Values belong to the molecule of their own block, whether it stands above or below them.

Amino acid sequences for entries named in this document (tags omitted).
UniProt P49336: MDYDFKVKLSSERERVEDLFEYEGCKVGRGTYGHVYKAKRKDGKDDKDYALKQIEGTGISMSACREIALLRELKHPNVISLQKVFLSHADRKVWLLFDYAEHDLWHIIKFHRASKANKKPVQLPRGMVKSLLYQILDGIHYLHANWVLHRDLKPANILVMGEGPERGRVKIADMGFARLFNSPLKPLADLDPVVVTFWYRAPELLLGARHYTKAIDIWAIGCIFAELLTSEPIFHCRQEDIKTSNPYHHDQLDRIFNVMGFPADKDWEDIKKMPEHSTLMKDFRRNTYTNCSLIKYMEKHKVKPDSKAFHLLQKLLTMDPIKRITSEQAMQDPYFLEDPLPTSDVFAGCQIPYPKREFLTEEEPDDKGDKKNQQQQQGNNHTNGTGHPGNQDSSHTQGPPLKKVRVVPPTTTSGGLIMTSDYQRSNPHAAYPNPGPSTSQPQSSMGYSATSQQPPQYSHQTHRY
UniProt Q15648: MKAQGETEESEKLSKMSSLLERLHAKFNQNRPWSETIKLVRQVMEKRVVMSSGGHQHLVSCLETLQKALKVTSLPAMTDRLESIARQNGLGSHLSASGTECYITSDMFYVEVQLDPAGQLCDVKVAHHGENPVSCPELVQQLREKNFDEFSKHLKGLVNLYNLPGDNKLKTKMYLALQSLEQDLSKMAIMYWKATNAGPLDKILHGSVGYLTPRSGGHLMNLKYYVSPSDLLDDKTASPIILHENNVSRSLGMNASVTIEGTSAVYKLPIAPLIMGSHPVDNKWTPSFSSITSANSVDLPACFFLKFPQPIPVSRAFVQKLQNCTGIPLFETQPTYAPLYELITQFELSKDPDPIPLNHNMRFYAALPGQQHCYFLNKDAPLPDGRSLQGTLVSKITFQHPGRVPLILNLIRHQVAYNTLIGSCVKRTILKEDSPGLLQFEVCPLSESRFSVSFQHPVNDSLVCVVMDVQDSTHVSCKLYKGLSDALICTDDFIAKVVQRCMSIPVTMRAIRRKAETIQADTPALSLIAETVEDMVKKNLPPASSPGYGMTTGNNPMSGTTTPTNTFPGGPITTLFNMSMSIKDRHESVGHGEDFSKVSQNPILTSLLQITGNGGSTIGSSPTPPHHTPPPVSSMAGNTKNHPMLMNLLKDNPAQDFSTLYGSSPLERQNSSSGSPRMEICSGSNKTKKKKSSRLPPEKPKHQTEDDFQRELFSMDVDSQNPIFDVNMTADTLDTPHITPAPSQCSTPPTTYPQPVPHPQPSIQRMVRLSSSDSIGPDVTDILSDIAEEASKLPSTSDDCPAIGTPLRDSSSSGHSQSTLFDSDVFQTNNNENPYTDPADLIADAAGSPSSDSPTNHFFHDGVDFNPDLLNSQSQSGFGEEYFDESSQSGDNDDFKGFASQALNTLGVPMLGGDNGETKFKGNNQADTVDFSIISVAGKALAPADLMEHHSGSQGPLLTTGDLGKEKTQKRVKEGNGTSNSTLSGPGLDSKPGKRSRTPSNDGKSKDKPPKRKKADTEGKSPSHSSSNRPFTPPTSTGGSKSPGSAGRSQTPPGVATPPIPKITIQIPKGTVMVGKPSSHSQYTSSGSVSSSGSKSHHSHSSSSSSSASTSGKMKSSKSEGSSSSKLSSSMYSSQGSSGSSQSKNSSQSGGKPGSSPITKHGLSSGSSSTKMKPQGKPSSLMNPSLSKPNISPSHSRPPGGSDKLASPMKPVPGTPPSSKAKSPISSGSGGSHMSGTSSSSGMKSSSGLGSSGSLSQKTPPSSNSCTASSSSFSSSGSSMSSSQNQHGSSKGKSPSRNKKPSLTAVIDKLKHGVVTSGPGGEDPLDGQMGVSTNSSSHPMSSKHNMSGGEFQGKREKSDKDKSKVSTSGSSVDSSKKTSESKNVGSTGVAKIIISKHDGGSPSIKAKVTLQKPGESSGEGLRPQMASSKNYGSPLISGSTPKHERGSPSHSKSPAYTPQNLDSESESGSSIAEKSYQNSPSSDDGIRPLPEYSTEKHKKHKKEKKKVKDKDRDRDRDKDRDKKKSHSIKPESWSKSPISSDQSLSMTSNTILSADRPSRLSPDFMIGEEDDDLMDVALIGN

What was measured:
MBP-6xHis-TEV-p63 = biological target: T1, MBP-6xHis-TEV-p63 (UniProt Q9H3D4); test: pull-down; purified MBP-p63 on magnetic amylose beads incubated overnight with nuclear lysates of endogenously tagged 3NHA-CDK8 HeLa cells; 20mM HEPES pH 7.5, 150mM KCl, 0.05% NP-40, 4C; maltose elution; HA western blot; only the target purified
T1 sequence: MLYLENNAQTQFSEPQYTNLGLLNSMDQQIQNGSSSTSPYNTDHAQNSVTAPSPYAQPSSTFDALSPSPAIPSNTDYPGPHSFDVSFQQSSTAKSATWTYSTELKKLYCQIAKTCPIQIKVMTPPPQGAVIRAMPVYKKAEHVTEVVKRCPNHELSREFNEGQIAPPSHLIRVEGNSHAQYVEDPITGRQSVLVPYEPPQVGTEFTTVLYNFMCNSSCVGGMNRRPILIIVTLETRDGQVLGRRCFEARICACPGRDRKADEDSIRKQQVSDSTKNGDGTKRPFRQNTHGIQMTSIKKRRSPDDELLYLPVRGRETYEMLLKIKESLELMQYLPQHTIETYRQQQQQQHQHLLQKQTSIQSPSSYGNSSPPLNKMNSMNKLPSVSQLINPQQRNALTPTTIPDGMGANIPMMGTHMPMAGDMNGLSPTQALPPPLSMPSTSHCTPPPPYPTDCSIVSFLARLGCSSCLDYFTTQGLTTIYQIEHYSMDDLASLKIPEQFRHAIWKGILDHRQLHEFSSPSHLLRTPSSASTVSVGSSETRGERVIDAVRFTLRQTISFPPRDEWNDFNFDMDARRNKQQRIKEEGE

p63-C-3xFLAG = biological target: T2, p63-C-3xFLAG (UniProt Q9H3D4); test: co-IP; FLAG immunoprecipitation (magnetic M2 FLAG beads, overnight, 4C) from HEK293T nuclear lysates with transiently transfected 3xFLAG-tagged p63; 150mM KCl, 0.05% NP-40; with or without ethidium bromide (50μg/mL); western blot of endogenous Mediator subunits
T2 sequence: T1 sequence

N-3xFLAG-p63 = biological target: T3, N-3xFLAG-p63 (UniProt Q9H3D4); test: as above
T3 sequence: T1 sequence

[1] = biological target: T4, MBP-6xHis-TEV-p63, Q9H3D4; test: cross-linking; purified protein incubated with 0.025% glutaraldehyde for 30min at 4C; SDS-PAGE, silver stain; both purified; conditions: remark: other sources report otherwise
T4 chain: T1 sequence

binding (MBP-6xHis-TEV-p63): binds
Molecule: 3xHA-tagged CDK8 (from UniProt P49336 1-464)

binding (p63-C-3xFLAG): binds | binding (N-3xFLAG-p63): binds
Molecule: CDK8 (from UniProt P49336 1-464)

binding (p63-C-3xFLAG): binds | binding (N-3xFLAG-p63): binds
Molecule: MED1 (from UniProt Q15648 1-1581)

binding [1]: binds
B1: MBP-6xHis-TEV-p63, Q9H3D4-2 1-586 (protein)
chain: T1 sequence

binding (p63-C-3xFLAG): binds
B2: MED23 (protein, UniProt Q9ULK4 1-1368)
chain: METQLQSIFEEVVKTEVIEEAFPGMFMDTPEDEKTKLISCLGAFRQFWGGLSQESHEQCIQWIVKFIHGQHSPKRISFLYDCLAMAVETGLLPPRLVCESLINSDTLEWERTQLWALTFKLVRKIIGGVDYKGVRDLLKVILEKILTIPNTVSSAVVQQLLAAREVIAYILERNACLLPAYFAVTEIRKLYPEGKLPHWLLGNLVSDFVDTFRPTARINSICGRCSLLPVVNNSGAICNSWKLDPATLRFPLKGLLPYDKDLFEPQTALLRYVLEQPYSRDMVCNMLGLNKQHKQRCPVLEDQLVDLVVYAMERSETEEKFDDGGTSQLLWQHLSSQLIFFVLFQFASFPHMVLSLHQKLAGRGLIKGRDHLMWVLLQFISGSIQKNALADFLPVMKLFDLLYPEKEYIPVPDINKPQSTHAFAMTCIWIHLNRKAQNDNSKLQIPIPHSLRLHHEFLQQSLRNKSLQMNDYKIALLCNAYSTNSECFTLPMGALVETIYGNGIMRIPLPGTNCMASGSITPLPMNLLDSLTVHAKMSLIHSIATRVIKLAHAKSSVALAPALVETYSRLLVYMEIESLGIKGFISQLLPTVFKSHAWGILHTLLEMFSYRMHHIQPHYRVQLLSHLHTLAAVAQTNQNQLHLCVESTALRLITALGSSEVQPQFTRFLSDPKTVLSAESEELNRALILTLARATHVTDFFTGSDSIQGTWCKDILQTIMSFTPHNWASHTLSCFPGPLQAFFKQNNVPQESRFNLKKNVEEEYRKWKSMSNENDIITHFSMQGSPPLFLCLLWKMLLETDHINQIGYRVLERIGARALVAHVRTFADFLVYEFSTSAGGQQLNKCIEILNDMVWKYNIVTLDRLILCLAMRSHEGNEAQVCYFIIQLLLLKPNDFRNRVSDFVKENSPEHWLQNDWHTKHMNYHKKYPEKLYFEGLAEQVDPPVQIQSPYLPIYFGNVCLRFLPVFDIVIHRFLELLPVSKSLETLLDHLGGLYKFHDRPVTYLYNTLHYYEMHLRDRAFLKRKLVHAIIGSLKDNRPQGWCLSDTYLKCAMNAREENPWVPDDTYYCRLIGRLVDTMAGKSPGPFPNCDWRFNEFPNPAAHALHVTCVELMALAVSGKEVGNALLNVVLKSQPLVPRENITAWMNAIGLIITALPEPYWIVLHDRIVSVISSPSLTSETEWVGYPFRLFDFTACHQSYSEMSCSYTLALAHAVWHHSSIGQLSLIPKFLTEVLLPIVKTEFQLLYVYHLVGPFLQRFQQERTRCMIEIGVAFYDMLLNVDQCSTHLNYMDPICDFLYHMKYMFTGDSVKEQVEKIICNLKPALKLRLRFITHISKMEPAAVPPQAMNSGSPAPQSNQVPVSLPVTQ
